Drawing on article PMC4959467, this text covers binding for one substance.

Protein sequences, listed by entry. Tags and fused reporters are not part of them.
UniProt Q9HC97: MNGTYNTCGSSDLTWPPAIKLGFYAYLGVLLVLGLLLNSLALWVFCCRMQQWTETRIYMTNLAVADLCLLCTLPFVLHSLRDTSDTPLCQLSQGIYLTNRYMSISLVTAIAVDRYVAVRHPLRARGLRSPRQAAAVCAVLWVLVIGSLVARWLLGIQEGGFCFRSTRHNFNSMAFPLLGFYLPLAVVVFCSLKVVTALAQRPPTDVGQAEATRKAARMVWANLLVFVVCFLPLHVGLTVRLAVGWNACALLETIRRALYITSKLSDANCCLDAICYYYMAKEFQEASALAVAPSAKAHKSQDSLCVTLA
UniProt P32121: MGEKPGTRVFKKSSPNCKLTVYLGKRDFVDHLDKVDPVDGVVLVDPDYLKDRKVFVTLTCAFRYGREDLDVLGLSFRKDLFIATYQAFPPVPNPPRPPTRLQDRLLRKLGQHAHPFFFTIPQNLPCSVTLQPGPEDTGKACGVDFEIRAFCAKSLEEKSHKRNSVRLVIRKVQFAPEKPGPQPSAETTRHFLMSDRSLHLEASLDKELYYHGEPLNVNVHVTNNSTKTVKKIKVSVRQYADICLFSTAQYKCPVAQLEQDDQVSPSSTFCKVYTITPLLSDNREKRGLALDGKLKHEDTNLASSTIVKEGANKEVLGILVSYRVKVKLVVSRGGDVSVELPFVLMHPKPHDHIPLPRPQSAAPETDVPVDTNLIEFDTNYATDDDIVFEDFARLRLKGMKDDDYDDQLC

These are yes or no findings as the source states them, for the method shown. In cells and extracts the contact can be indirect. Some binding calls cover weakened binding; strength is not graded here.

For this test, the target named is FLAG-tagged hGPR35 enhanced yellow fluorescent protein (FLAG-hGPR35-eYFP) (human) (UniProt Q9HC97). Kind of test: FRET or BRET; HEK293T cells cotransfected with FLAG-hGPR35-eYFP and β-arrestin-2-Renilla luciferase 6 (ratio 4:1); Hanks' balanced salt solution pH 7.4, 5 μM coelentrazine-h, 37°C; 5 min with the agonists pamoic acid or zaprinast; BRET ratio 530/485 nm as percentage of maximal signal. For orientation: BRET reads energy transfer from a luciferase to a nearby fluorophore.

On to “β-arrestin-2-Renilla luciferase 6 (from UniProt P32121 1-409)”, for which the binding result is “binds”.
